Measurements: US20120021995A1 (published 2012)
Results are given in words; binding and its absence hold for the method and conditions named. Some entries that bind do so weakly or less than the wild type. For some of these results: Where a sequence is shown, tags or fusion partners need not be part of it.

Sequences of proteins named here, by UniProt entry; tags and fusion partners are left off. A change or cut given only in a name is not applied to a line headed by its entry.
UniProt O14763: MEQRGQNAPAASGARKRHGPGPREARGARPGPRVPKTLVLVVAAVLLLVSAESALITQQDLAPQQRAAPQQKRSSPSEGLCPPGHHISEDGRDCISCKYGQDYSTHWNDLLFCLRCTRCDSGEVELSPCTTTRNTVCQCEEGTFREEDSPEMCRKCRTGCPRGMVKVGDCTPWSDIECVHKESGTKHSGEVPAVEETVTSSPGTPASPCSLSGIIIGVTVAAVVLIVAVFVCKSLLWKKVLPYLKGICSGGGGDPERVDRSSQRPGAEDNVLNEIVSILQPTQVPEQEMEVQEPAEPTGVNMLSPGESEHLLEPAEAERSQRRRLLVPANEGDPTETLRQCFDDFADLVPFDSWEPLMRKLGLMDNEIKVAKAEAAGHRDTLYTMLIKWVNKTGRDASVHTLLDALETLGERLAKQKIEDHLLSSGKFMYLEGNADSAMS

T1: recombinant human TRAIL R1 (DR4)/Fc chimera (human) (UniProt O00220)
T1 sequence: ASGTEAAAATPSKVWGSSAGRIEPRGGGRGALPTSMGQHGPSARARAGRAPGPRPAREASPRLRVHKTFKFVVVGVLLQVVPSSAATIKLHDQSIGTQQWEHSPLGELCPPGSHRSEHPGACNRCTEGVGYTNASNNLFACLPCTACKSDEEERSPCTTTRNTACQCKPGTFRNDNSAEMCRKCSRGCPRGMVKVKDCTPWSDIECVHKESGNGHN

B1: 014-42.3B8 (designed binder)
chain: EPPTQKPKKIVNAKKDVVNTKMFEELKSRLDTLAQEVALLKEQQALQTVCLKGTKVHMKCFLAFTQTKTFHEASEDCISRGGTLSTPQTGSENDALYEYLRQSVGNEAEIWLGLNGWLEGVGWVDMTGARIAYKNWETEITAQPDGGEHWGWENCAVLSGAANGKWFDKRCRDQLPYICQFGIV
notes: ATRIMER; also called 14p42P3B8
B2: 119p94P1B5 (designed binder)
chain: EPPTQKPKKIVNAKKDVVNTKMFEELKSRLDTLAQEVALLKEQQALQTVCLKGTKVHMKCFLAFTQTKTFHEASEDCISRGGTLSTPQTGSENDALYEYLRQSVGNEAEIWLGLNGWLEGVGWVDMTGARIAYKNWARHINEQPDGGWPFSNENCAVLSGAANGKWFDKRCRDQLPYICQFGIV
notes: ATRIMER from pANA19
B3: 119p83P1H4 (designed binder)
chain: EPPTQKPKKIVNAKKDVVNTKMFEELKSRLDTLAQEVALLKEQQALQTVCLKGTKVHMKCFLAFTQTKTFHEASEDCISRGGTLSTPQTGSENDALYEYLRQSVGNEAEIWLGLNGWLEGVGWVDMTGARIAYKNWSKVRLEQPDGGWPFSNENCAVLSGAANGKWFDKRCRDQLPYICQFGIV
notes: ATRIMER from pANA19
B4: 71p88P1B3 (designed binder)
chain: EPPTQKPKKIVNAKKDVVNTKMFEELKSRLDTLAQEVALLKEQQALQTVCLKGTKVHMKCFLAFTQTKTFHEASEDCISRGGTLSTPQTGSENDALYEYLRQSVGNEAEIWLGLNGWLEGSGWVDMTGARIAYKNWETEITAQPDGGVQWRWENCAVLSGAANGKWFDKRCRDQLPYICQFGIV
B5: 132p103P9E8 (peptide, not shown: small tags and cut ends)
chain: TKIDDNALVITQKARWRVVNTKMFEELKSRLDTLAQEVALLKEQQALQTVCLK
B6: 132p105P10B1 (peptide, not shown: small tags and cut ends)
chain (part 1 of 2): FYPSVCLTSCASIQR
chain (part 2 of 2): VVNTKMFEELKSRLDTLAQEVALLKEQQALQTVCLK
B7: 132p18P3A10 (peptide, not shown: small tags and cut ends)
chain (part 1 of 2): MHMTPPYLCRWGCAT
chain (part 2 of 2): VVNTKMFEELKSRLDTLAQEVALLKEQQALQTVCLK
B8: 132p103P11E7-1 (peptide, not shown: small tags and cut ends)
chain (part 1 of 2): QEGWTFSCMPYLTCR
chain (part 2 of 2): VVNTKMFEELKSRLDTLAQEVALLKEQQALQTVCLK
B9: 132p103P11E7-4 (peptide, not shown: small tags and cut ends)
chain (part 1 of 2): QMNCRPILTCKHRTL
chain (part 2 of 2): VVNTKMFEELKSRLDTLAQEVALLKEQQALQTVCLK
B10: 132p105P9A6 (peptide, not shown: small tags and cut ends)
chain (part 1 of 2): QGPTIMGPYLCTYGC
chain (part 2 of 2): VVNTKMFEELKSRLDTLAQEVALLKEQQALQTVCLK
B11: 132p104P9C10 (peptide, not shown: small tags and cut ends)
chain (part 1 of 2): WTASSKFCSRPFLTC
chain (part 2 of 2): VVNTKMFEELKSRLDTLAQEVALLKEQQALQTVCLK
B12: 132p45P7G2 (peptide, not shown: small tags and cut ends)
chain (part 1 of 2): GGCLPYLTCRMGSVT
chain (part 2 of 2): VVNTKMFEELKSRLDTLAQEVALLKEQQALQTVCLK
B13: 132p19P5D1 (peptide, not shown: small tags and cut ends)
chain (part 1 of 2): VVMNGPFLCRTPCLV
chain (part 2 of 2): VVNTKMFEELKSRLDTLAQEVALLKEQQALQTVCLK
B14: 119p83P1D9Q (designed binder)
chain: ALQTVCLKGTKVHMKCFLAFTQTKTFHEASEDCISRGGTLSTPQTGSENDALYEYLRQSVGNEAEIWLGLNGWLEGVGWVDMTGARIAYKNWEHPEPWHQPDGGWPFSNENCAVLSGAANGKWFDKRCRDQLPYICQFGIV
B15: 119p94P1G7 (designed binder)
chain: EPPTQKPKKIVNAKKDVVNTKMFEELKSRLDTLAQEVALLKEQQALQTVCLKGTKVHMKCFLAFTQTKTFHEASEDCISRGGTLSTPQTGSENDALYEYLRQSVGNEAEIWLGLNGWLEGVGWVDMTGARIAYKNWGWSARVQPDGGWPFSNENCAVLSGAANGKWFDKRCRDQLPYICQFGIV
notes: ATRIMER from pANA19
B16: 71p88P1G11 (designed binder)
chain: EPPTQKPKKIVNAKKDVVNTKMFEELKSRLDTLAQEVALLKEQQALQTVCLKGTKVHMKCFLAFTQTKTFHEASEDCISRGGTLSTPQTGSENDALYEYLRQSVGNEAEIWLGLNGWMAGVGWVDMTGARIAYKNWETEITAQPDGGPGLRWENCAVLSGAANGKWFDKRCRDQLPYICQFGIV
B17: 119p94P1B4 (designed binder)
chain: EPPTQKPKKIVNAKKDVVNTKMFEELKSRLDTLAQEVALLKEQQALQTVCLKGTKVHMKCFLAFTQTKTFHEASEDCISRGGTLSTPQTGSENDALYEYLRQSVGNEAEIWLGLNGWLEGVGWVDMTGARIAYKNWAEVPFFQPDGGWPFSNENCAVLSGAANGKWFDKRCRDQLPYICQFGIV
notes: ATRIMER from pANA19
B18: 119p94P1D8 (designed binder)
chain: EPPTQKPKKIVNAKKDVVNTKMFEELKSRLDTLAQEVALLKEQQALQTVCLKGTKVHMKCFLAFTQTKTFHEASEDCISRGGTLSTPQTGSENDALYEYLRQSVGNEAEIWLGLNGWLEGVGWVDMTGARIAYKNWGWMDSKQPDGGWPFSNENCAVLSGAANGKWFDKRCRDQLPYICQFGIV
notes: ATRIMER from pANA19
B19: 119p83P1H1 (designed binder)
chain: EPPTQKPKKIVNAKKDVVNTKMFEELKSRLDTLAQEVALLKEQQALQTVCLKGTKVHMKCFLAFTQTKTFHEASEDCISRGGTLSTPQTGSENDALYEYLRQSVGNEAEIWLGLNGWLEGVGWVDMTGARIAYKNWTQRHSGQPDGGWPFSNENCAVLSGAANGKWFDKRCRDQLPYICQFGIV
notes: ATRIMER from pANA19
B20: 119p94P1C1 (designed binder)
chain: EPPTQKPKKIVNAKKDVVNTKMFEELKSRLDTLAQEVALLKEQQALQTVCLKGTKVHMKCFLAFTQTKTFHEASEDCISRGGTLSTPQTGSENDALYEYLRQSVGNEAEIWLGLNGWLEGVGWVDMTGARIAYKNWAISDERQPDGGWPFSNENCAVLSGAANGKWFDKRCRDQLPYICQFGIV
notes: ATRIMER from pANA19
B21: 119p94P1F4 (designed binder)
chain: EPPTQKPKKIVNAKKDVVNTKMFEELKSRLDTLAQEVALLKEQQALQTVCLKGTKVHMKCFLAFTQTKTFHEASEDCISRGGTLSTPQTGSENDALYEYLRQSVGNEAEIWLGLNGWLEGVGWVDMTGARIAYKNWAAVTMEQPDGGWPFSNENCAVLSGAANGKWFDKRCRDQLPYICQFGIV
notes: ATRIMER from pANA19

These binders were tested against T1, recombinant human TRAIL R1 (DR4)/Fc chimera (human) (assay: SPR (Biacore) after Alexa Fluor-488 conjugation).

binding, binds:
B1
B2
B3
B4

What follows are binders tested against recombinant human TRAIL R2 (DR5)/Fc chimera (human) (UniProt O14763) (assay: panning of the peptide trimer phage library on DR5-Fc).

binding, binds:
B5
B6
B7
B8
B9
B10
B11
B12
B13

The binders below were run against T1, recombinant human TRAIL R1 (DR4)/Fc chimera (human) (assay: phage ELISA on DR4/Fc).

binding, binds:
B14
B1
B15
B2
B16
B3
B17
B18
B19
B4
B20
B21
